The target in this test is T1, recombinant human LRP6-Fc chimera (human, UniProt O75581 20-1370).
T1 construct: extracellular domain; also called ECD of human LRP6; not shown: Fc part of the chimera
T1 sequence (looked up): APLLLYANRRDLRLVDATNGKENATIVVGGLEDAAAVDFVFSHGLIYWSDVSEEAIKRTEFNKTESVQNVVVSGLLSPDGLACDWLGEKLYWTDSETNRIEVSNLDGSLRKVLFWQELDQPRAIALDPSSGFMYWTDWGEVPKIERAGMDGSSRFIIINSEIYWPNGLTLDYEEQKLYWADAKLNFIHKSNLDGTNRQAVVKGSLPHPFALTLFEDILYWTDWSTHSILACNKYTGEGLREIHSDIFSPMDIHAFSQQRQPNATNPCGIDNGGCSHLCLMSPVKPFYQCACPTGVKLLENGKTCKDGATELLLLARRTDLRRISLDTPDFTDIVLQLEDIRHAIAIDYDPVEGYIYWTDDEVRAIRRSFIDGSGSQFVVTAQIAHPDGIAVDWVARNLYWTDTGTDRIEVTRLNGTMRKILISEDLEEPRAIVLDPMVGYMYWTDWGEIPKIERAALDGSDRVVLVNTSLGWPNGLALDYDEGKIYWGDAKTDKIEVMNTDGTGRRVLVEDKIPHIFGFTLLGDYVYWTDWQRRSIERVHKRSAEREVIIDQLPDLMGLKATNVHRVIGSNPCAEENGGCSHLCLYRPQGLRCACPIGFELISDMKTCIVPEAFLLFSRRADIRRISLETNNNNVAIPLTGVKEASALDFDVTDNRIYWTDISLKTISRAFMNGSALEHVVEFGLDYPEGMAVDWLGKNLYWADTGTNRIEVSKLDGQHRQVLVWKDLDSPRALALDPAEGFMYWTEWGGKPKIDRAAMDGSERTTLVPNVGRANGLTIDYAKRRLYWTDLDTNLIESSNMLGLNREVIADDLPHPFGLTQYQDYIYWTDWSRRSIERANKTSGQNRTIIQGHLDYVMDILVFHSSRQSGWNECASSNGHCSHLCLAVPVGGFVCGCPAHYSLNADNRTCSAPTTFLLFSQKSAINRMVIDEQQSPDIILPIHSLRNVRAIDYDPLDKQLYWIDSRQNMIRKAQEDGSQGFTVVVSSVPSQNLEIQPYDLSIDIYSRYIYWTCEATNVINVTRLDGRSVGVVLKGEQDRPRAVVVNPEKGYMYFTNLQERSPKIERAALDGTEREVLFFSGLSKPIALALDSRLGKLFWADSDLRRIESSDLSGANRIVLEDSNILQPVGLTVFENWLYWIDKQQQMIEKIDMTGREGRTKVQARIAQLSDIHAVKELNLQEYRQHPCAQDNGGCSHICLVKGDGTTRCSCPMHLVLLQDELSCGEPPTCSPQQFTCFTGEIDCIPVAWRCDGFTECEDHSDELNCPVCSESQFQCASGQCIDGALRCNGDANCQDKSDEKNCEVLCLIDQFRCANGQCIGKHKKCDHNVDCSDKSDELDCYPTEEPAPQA
The experiment in a line: single-point ELISA, coated antigen, purified Fab or IgG1, anti-kappa-HRP. On the technique in general: ELISA stands for enzyme-linked immunosorbent assay.

No constants are given. Whether binding was seen depends on the method and setting. Some binding calls cover weakened binding; strength is not graded here.

B1: LRP5-R3O_D3 (antibody, V domains shown)
VH: EVQLVESGGGLVQPGGSLRLSCAASGFNFSSSSIHWVRQAPGKGLEWVASISSSYGYTYYADSVKGRFTISADTSKNTAYLQMNSLRAEDTAVYYCARSWAMDYWGQGTLVTVSS
VL: DIQMTQSPSSLSASVGDRVTITCRASQSVSSAVAWYQQKPGKAPKLLIYSASSLYSGVPSRFSGSRSGTDFTLTISSLQPEDFATYYCQQYWAYYSPITFGQGTKVEIKR
notes: Fab-phage in the screen; also called LRP5-R30_D3; LRP5-R30D3
Consider B1, for which the binding entry is “binds”.
